Assay results as given in PubChem BioAssay AID540276 (National Center for Advancing Translational Sciences (NCATS), 2011).
The whole screen tested about 300,000 compounds, of which about 5,400 (1.8%) were called active. The inconclusive results got no clear call from the source; some entries with a clear call stand among them for comparison. The call rests on the fitted dose curve; tested in HEK293 cells. Where the call is inconclusive, the potency comes from a doubtful curve fit.
Potency means the concentration at half of the fitted maximal effect.

Test: qHTS for inhibitors of binding or entry into cells for Marburg Virus
Details: Marburg virus pseudotyped entry inhibition, cell reporter; series mostly up to 37.8 µM
For `Cc1ccc(NC(=O)CCS(=O)(=O)c2ccccc2)cc1S(=O)(=O)N1CCCCCC1`, the Potency was inconclusive: 35.5 µM [inhibitor, single point].
For `CN(C)c1cc2c(cc1NC(=O)c1ccccc1Cl)n(C)c(=O)n2C`, the Potency was inconclusive: 14.1 µM [inhibitor, single point].
With `CCOc1cc(C(=O)N2CC(=O)Nc3ccc(C)cc3C2c2ccccc2)cc(OCC)c1OCC` (configuration not stated) the Potency was inconclusive: 5.62 µM [inhibitor, single point].
For `N#C/C(=C\c1cn(Cc2cccc(F)c2)c2ccccc12)C(=O)NCc1ccco1`, the Potency was inconclusive: 1.78 µM [activator, partial curve, poor fit].
With `CN(C)C(=O)c1nc2ccc(Cl)cn2c1CNCc1ccccc1OC(F)(F)F` the Potency was inconclusive: 4.47 µM [inhibitor, full curve, poor fit].
For `COc1ccc(CN2CCNC(=O)C2CC(=O)N(C)Cc2nccs2)cc1OC` (configuration not stated), the Potency was “inactive”.
In the case of `CC(=O)Nc1ccc(C(=O)CSc2nnnn2C(C)C)cc1`, the Potency is reported as “inactive”.
With `COc1ccc(NC(=O)COc2ccccc2)cc1Cl` the Potency was “inactive”.
In the case of `CCN1CC(CN(C)Cc2cn(-c3ccc(C)cc3)nc2-c2cccc(C)c2)CC1=O` (configuration not stated), the Potency is reported as active: 11.2 µM.
With `CCC(=O)Oc1oc(-c2ccccc2)nc1C=Nc1ccccc1OC` the Potency was inconclusive: 29.1 µM [inhibitor, single point].
In the case of `CCS(=O)(=O)N1CCc2cc(C(=O)Nc3ccc(OC)c(Cl)c3)ccc21`, the Potency is reported as inconclusive: 7.94 µM [inhibitor, partial curve, poor fit].
For `Cc1cc2oc(=O)cc(CN(C)Cc3ccccc3F)c2cc1Cl`, the Potency was inconclusive: 1.41 µM [activator, partial curve, poor fit].
With `CC(C)N(Cc1ccccc1)C(=O)COC(=O)c1cc(S(=O)(=O)N(C)C)ccc1N1CCCC1` the Potency was inconclusive: 3.55 µM [inhibitor, partial curve, poor fit].
With `CC1CCc2sc3ncnc(N4CCN(C)CC4)c3c2C1` (configuration not stated) the Potency was inconclusive: 1.26 µM [inhibitor, single point].
For `CCOc1ccc(Cl)cc1S(=O)(=O)N1CCC(C(=O)NCc2cccnc2)CC1`, the Potency was inconclusive: 8.91 µM [inhibitor, partial curve, poor fit].
With `CCCC[C@]1(C(=O)OCC)C[C@H](CN2CCOCC2)OC1=O` the Potency was “inactive”.
With `O=C(COc1ccc2c(C(F)(F)F)cc(=O)oc2c1)Nc1ccc(N2CCOCC2)cc1` the Potency was inconclusive: 1.16 µM [inhibitor, partial curve, poor fit].
For `CC(=O)c1cc(-c2ccccc2)n(CCC(=O)NC2CCCC2)c1C`, the Potency was inconclusive: 5.01 µM [inhibitor, full curve, poor fit].
With `CCCCN(CCCC)S(=O)(=O)c1ccc(NC(=O)c2cccs2)cc1` the Potency was active: 18.3 µM.
In the case of `C/C(=N\Nc1nnc2c3ccccc3n(C)c2n1)c1ccc(C)o1`, the Potency is reported as “inactive”.
With `O=C(c1ccccc1)c1cnc(-c2ccc(Cl)cc2)s1` the Potency was “inactive”.
With `COc1ccc(N2CC(C)Cn3c2nc2c3c(=O)n(Cc3ccccc3)c(=O)n2C)c(OC)c1` (configuration not stated) the Potency was inconclusive: 10 µM [inhibitor, partial curve, poor fit].
In the case of `COc1ccccc1N1CCN(C2CCCC(C)C2)CC1` (configuration not stated), the Potency is reported as “inactive”.
For `CCOC(=O)c1sc2ncn(CC(=O)Nc3ccc(N(C)C)cc3)c(=O)c2c1C`, the Potency was inconclusive: 14.1 µM [inhibitor, single point].
In the case of `Cc1ccc(C2NC(c3ccc(C)cc3)C(C)C(=NO)C2C)cc1` (configuration not stated), the Potency is reported as inconclusive: 20.6 µM [inhibitor, partial curve].
For `COc1ccc(S(=O)(=O)Nc2ccc3c(c2)OCCO3)cc1OC`, the Potency was “inactive”.
With `Cc1ccc(C2NC(=S)NC3=C2C(=O)CCC3)cc1` (configuration not stated) the Potency was “inactive”.
For `COc1ccc(C(C)=O)cc1CSc1ncccn1`, the Potency was inconclusive: 3.98 µM [activator, single point].
In the case of `O=C(O)c1cc(-c2cccc(Cl)c2)nc2nc(N3CCCCC3)sc12`, the Potency is reported as “inactive”.
For `COc1ccccc1-n1nnnc1SCC(=O)NC1CCCC1`, the Potency was inconclusive: 1.12 µM [inhibitor, single point].
With `O=C(NCC1CCCO1)c1nn2cccnc2c1Cl` (configuration not stated) the Potency was inconclusive: 0.501 µM [activator, full curve, poor fit].
In the case of `CCOC(=O)C1CCN(Cc2cc(Cl)c3ccccc3c2O)CC1`, the Potency is reported as inconclusive: 35.5 µM [inhibitor, single point].
For `CCOCC(=O)N1CCN(c2cccc(Cl)c2)CC1`, the Potency was inconclusive: 35.5 µM [activator, single point].
With `Cc1occc1C(=O)N1CCN(S(=O)(=O)c2ccccc2)CC1` the Potency was “inactive”.
For `CC(C)OC(=O)c1cc(-c2ccc(C=O)o2)ccc1Cl`, the Potency was “inactive”.
With `CCC(=O)NCCc1nc2cc(NC(=O)c3ccccc3Cl)ccc2n1C` the Potency was inconclusive: 2.82 µM [activator, partial curve, poor fit].
With `CC1=CCC2C(=O)N(c3ccc(C(=O)N4CCCCCC4)cc3)C(=O)C2C1` (configuration not stated) the Potency was inconclusive: 1.58 µM [inhibitor, partial curve, poor fit].
For `CC1=NN(C(=O)CCc2ccccc2O)C(O)(C(F)(F)F)C1` (configuration not stated), the Potency was “inactive”.
In the case of `O=C(C1CCN(S(=O)(=O)c2ccc(Br)s2)CC1)N1CCN(c2cccc(Cl)c2)CC1`, the Potency is reported as “inactive”.
In the case of `N#Cc1ccc(C(=O)Nc2nc(SCc3ccc(Cl)cc3)n[nH]2)cc1`, the Potency is reported as “inactive”.
With `COc1ccc(-c2cc(=Nc3ccccc3)c3cc(C)ccc3o2)cc1` the Potency was inconclusive: 6.51 µM [activator, single point].
For `O=C(CNC(=O)OCc1ccccc1)NCC(=O)Nc1ccc(Br)cc1C(=O)c1ccccc1`, the Potency was inconclusive: 0.0651 µM [activator, partial curve, poor fit].
For `CCOC(=O)c1cnn(-c2ccc(C)cc2)c1N`, the Potency was inconclusive: 6.31 µM [activator, single point].
In the case of `O=C(NCCc1ccccc1)c1ccc(NC(=O)C2CCCC2)cc1`, the Potency is reported as inconclusive: 12.5 µM [activator, partial curve].
With `Cc1[nH]n(-c2ccccc2)c(=O)c1C(C[N+](=O)[O-])c1ccc(F)cc1` (configuration not stated) the Potency was inconclusive: 3.16 µM [activator, partial curve].
For `CCCn1c(SCc2ccc(Cl)cc2)nc2c1c(=O)[nH]c(=O)n2C`, the Potency was “inactive”.
For `COC(=O)C1=C(C)NC(=O)NC1c1ccc([N+](=O)[O-])o1` (configuration not stated), the Potency was “inactive”.
With `CCN(CC(=O)Nc1ccccc1OC)CC(=O)Nc1ccccc1-c1ccccc1` the Potency was inconclusive: 5.01 µM [inhibitor, full curve, poor fit].
For `CCCCOCCCn1c(-c2ccco2)nc2nc3ccccc3nc21`, the Potency was “inactive”.
For `O=C(Nc1ccc(S(=O)(=O)N2CCCCCC2)cc1)c1ccco1`, the Potency was inconclusive: 2.06 µM [inhibitor, full curve, poor fit].
In the case of `Cc1c(C(=O)c2ccc(Cl)c([N+](=O)[O-])c2)c2ccccn2c1CCC#N`, the Potency is reported as inconclusive: 20.6 µM [inhibitor, partial curve, poor fit].
In the case of `COc1cccc(C(=O)C2CCCN(Cc3cccc(-n4cccn4)c3)C2)c1` (configuration not stated), the Potency is reported as inconclusive: 20 µM [inhibitor, partial curve, poor fit].
With `CCCN(CCC)C(=O)CC(c1ccccc1)c1ccc(C)cc1O` (configuration not stated) the Potency was inconclusive: 32.6 µM [inhibitor, single point].
In the case of `CC(C)(C)c1nc2cc(Cl)c([N+](=O)[O-])cc2o1`, the Potency is reported as inconclusive: 35.5 µM [inhibitor, single point].
In the case of `CCCCCCCN=CC1=C(O)CC(c2ccccc2)CC1=O` (configuration not stated), the Potency is reported as “inactive”.
With `CCN(C(=O)CN1CCN(c2cccc(Cl)c2)CC1)c1c(N)n(Cc2ccccc2)c(=O)[nH]c1=O` the Potency was inconclusive: 0.251 µM [inhibitor, full curve, poor fit].
With `O=C(Nc1cccc(-c2cnc3ccccc3n2)c1)c1cccc(NC(=O)c2ccco2)c1` the Potency was active: 11.6 µM.
With `CNc1nc(SCc2ccc(C)cc2)nc2c1CCCC2` the Potency was inconclusive: 11.2 µM [inhibitor, partial curve, poor fit].
In the case of `Cn1c(=O)c2c(nc(NCc3ccc4c(c3)OCO4)n2Cc2ccccc2F)n(C)c1=O`, the Potency is reported as “inactive”.
For `O=C(COC(=O)/C=C/c1ccc(F)cc1)Nc1ccc(S(=O)(=O)N2CCOCC2)cc1`, the Potency was inconclusive: 3.16 µM [inhibitor, partial curve, poor fit].
For `O=C(O)c1ccccc1-c1ccccc1C(=O)Nc1ccccc1`, the Potency was “inactive”.
With `O=C(CN1CCN(S(=O)(=O)c2ccc(Cl)cc2)CC1)Nc1ccc2c(c1)OCCO2` the Potency was inconclusive: 7.08 µM [activator, partial curve].
For `Cc1ccc(C2CC(C(F)(F)F)n3ncc(C(N)=O)c3N2)cc1` (configuration not stated), the Potency was “inactive”.
In the case of `Cc1cccc(C)c1NC(=O)C(NS(=O)(=O)c1ccc2c(c1)CCC(=O)N2)c1ccccc1` (configuration not stated), the Potency is reported as “inactive”.
For `CCOc1cc(C2C(C(=O)O)c3cc(OCC)c(OCC)cc3C(=O)N2C)ccc1O` (configuration not stated), the Potency was “inactive”.
In the case of `Cc1c2cnn(-c3ccccc3)c(=O)c2c(C)n1CCCC(=O)Nc1cc(F)ccc1F`, the Potency is reported as “inactive”.
In the case of `CC(C)(C)C(=O)Nc1ccc(N2CCN(c3ccc(C(F)(F)F)cn3)CC2)nc1`, the Potency is reported as “inactive”.
With `Cc1cc(Cl)ccc1NC(=S)NC1CCCC1` the Potency was “inactive”.
With `NC(=O)COC(=O)c1cccnc1Nc1ccccc1F` the Potency was “inactive”.
For `COC(=O)c1nc2n(n1)C(c1cccc(Cl)c1)C(C(=O)Nc1ccccc1OC)=C(C)N2` (configuration not stated), the Potency was inconclusive: 6.31 µM [inhibitor, single point].
With `NC(=O)NC(=O)COC(=O)c1ccccc1Oc1ccccc1` the Potency was inconclusive: 1.26 µM [inhibitor, single point].
In the case of `O=C(N[C@@H](Cc1ccccc1)C(=O)NC1CC1)c1ccc(Cl)cc1`, the Potency is reported as inconclusive: 35.5 µM [activator, single point].
